Test results taken from publication doi:10.1101/2023.08.30.555532.
These are yes or no findings as the source states them, for the method shown. For part of these data: In cells and extracts the contact can be indirect. Some entries that bind do so weakly or less than the wild type.

By UniProt entry, the sequences of proteins in these tests, tags left out.
UniProt Q9UHP3: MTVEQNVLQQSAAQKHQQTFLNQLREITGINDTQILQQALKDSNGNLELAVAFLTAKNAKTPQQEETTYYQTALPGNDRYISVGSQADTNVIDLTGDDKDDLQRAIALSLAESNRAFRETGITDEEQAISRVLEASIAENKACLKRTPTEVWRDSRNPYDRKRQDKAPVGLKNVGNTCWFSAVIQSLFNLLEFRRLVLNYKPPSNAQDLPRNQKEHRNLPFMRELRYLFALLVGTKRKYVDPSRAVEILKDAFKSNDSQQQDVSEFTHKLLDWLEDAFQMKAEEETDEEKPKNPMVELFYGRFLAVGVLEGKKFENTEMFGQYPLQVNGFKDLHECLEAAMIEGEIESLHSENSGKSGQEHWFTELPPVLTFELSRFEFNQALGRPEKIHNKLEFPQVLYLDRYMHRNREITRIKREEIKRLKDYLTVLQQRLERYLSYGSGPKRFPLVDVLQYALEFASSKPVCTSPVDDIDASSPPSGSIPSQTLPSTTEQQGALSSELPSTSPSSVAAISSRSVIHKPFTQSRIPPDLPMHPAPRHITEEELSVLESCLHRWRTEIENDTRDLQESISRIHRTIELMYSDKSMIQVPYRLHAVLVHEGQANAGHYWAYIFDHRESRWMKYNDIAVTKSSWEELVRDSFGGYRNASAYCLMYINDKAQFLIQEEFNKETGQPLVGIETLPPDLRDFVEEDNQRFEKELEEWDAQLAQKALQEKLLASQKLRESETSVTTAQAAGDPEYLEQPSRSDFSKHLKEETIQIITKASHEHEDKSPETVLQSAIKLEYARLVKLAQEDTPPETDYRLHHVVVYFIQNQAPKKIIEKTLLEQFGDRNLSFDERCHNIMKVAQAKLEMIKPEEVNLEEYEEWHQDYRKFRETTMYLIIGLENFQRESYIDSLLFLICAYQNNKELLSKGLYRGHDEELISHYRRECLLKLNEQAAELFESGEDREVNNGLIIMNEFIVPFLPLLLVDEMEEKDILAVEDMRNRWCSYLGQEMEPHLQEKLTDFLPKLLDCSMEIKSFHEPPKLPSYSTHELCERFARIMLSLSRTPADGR

Key:
[1] = molecular target: T1, GC (endogenous, PLC-PRF-5 cells) (human (endogenous in PLC-PRF-5)) (UniProt P02774); assay: co-IP
T1 sequence: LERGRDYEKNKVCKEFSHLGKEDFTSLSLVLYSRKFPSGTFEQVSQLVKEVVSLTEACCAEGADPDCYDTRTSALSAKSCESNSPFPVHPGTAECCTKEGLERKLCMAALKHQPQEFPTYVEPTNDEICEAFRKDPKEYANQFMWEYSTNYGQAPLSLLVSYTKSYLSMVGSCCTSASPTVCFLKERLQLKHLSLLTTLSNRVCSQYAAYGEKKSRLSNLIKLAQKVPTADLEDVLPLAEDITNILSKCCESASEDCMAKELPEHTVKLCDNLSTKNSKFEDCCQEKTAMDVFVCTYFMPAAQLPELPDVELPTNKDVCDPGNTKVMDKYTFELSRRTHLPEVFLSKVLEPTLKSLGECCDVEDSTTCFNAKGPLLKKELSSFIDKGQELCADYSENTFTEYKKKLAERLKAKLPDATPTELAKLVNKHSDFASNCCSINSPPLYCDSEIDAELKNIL

[2] = molecular target: T1, GC (endogenous, PLC-PRF-5 cells) (human (endogenous in PLC-PRF-5)); assay: proximity ligation
[3] = molecular target: T1, GC (endogenous, PLC-PRF-5 cells) (human (endogenous in PLC-PRF-5)); assay: proximity ligation; remark: listed apart in the source
[4] = molecular target: T1, GC (endogenous, PLC-PRF-5 cells) (human (endogenous in PLC-PRF-5)); assay: co-IP; remark: listed apart in the source
[5] = molecular target: T2, DNase1L3 protein (SPR and MST) (UniProt Q13609); assay: SPR
T2 sequence: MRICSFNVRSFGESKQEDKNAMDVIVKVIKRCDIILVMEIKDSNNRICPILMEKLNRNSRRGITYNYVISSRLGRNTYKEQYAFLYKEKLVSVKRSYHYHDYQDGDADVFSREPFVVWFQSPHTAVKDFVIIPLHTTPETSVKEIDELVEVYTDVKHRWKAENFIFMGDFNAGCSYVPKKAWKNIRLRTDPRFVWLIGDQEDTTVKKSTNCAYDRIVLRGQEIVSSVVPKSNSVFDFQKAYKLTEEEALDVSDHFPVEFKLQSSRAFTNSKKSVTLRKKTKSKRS

[6] = molecular target: T2, DNase1L3 protein (SPR and MST); assay: MST

For “USP25 (from UniProt Q9UHP3 1-1055) (enzyme)”, the binding [1] was “binds” and the binding [2] was “binds”.

B1: DNase1L3 (endogenous, PLC-PRF-5 cells) (enzyme, UniProt Q13609 21-305)
chain: T2 sequence
With B1 the binding [3] was “binds” and the binding [4] was “binds”.

B2: GC protein (SPR and MST) (protein, UniProt P02774 17-474)
chain: T1 sequence
In the case of B2, the binding [5] is reported as “binds” and the binding [6] is reported as “binds”.
